PubChem BioAssay AID1259254 – NCATS – 2017

Test: 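Finding genes that stop cells copying their DNA twice in one cycle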 (primary screen)
System: human HCT116 colorectal cancer cells
Reagents: single siRNA against human genes
Timing: 3 days
Detection: 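Imaged Hoechst DNA stain sorts each cell into a cycle phase by DNA amount; per plate, G2 fraction set to 0% for non-targeting and 100% for GMNN siRNA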
Scale: G2 robust z-score and G2 cells, % of GMNN control: higher = more G2 cells, more excess DNA replication
Hit rule: 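Active siRNAs have a G2 robust z of 5 or more median absolute deviations over the median, which in these data means about 38% or higher of GMNN control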
Shown is an unselected part of about 59,000 reagents tested. About 1,550 of all reagents (2.6%) were called active. 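G2 share is only a proxy for re-replication; each gene was hit by three separate siRNAs, and active genes were retested.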 The numbers tell different reagents against one gene apart. Further read-outs or replicates are left out here. The record does not give: the amount of reagent.

For MVK (mevalonate kinase) #1, what was measured?
G2 robust z-score: 2.58; G2 cells, % of GMNN control: 21.1; outcome: inactive

How did the screen score MVK (mevalonate kinase) #2?
G2 robust z-score: -1.54; G2 cells, % of GMNN control: -7.87; outcome: inactive

For MVK (mevalonate kinase) #3, what does the deposit list?
G2 robust z-score: 2.08; G2 cells, % of GMNN control: 17.6; outcome: inactive

How did the screen score AKAP8 (A-kinase anchoring protein 8) #1?
G2 robust z-score: 5.26; G2 cells, % of GMNN control: 40; outcome: active

Which result is listed for AKAP8 (A-kinase anchoring protein 8) #2?
G2 robust z-score: -0.0416; G2 cells, % of GMNN control: 2.67; outcome: inactive

For AKAP8 (A-kinase anchoring protein 8) #3, what does the deposit list?
G2 robust z-score: 0.48; G2 cells, % of GMNN control: 6.35; outcome: inactive

Which result is listed for NF1 (neurofibromin 1) #1?
G2 robust z-score: -0.963; G2 cells, % of GMNN control: -3.81; outcome: inactive

What is on record for NF1 (neurofibromin 1) #2?
G2 robust z-score: -0.773; G2 cells, % of GMNN control: -2.47; outcome: inactive

What is on record for NF1 (neurofibromin 1) #3?
G2 robust z-score: -0.227; G2 cells, % of GMNN control: 1.37; outcome: inactive

What did the screen give for NF1 (neurofibromin 1) #4?
G2 robust z-score: 1.27; G2 cells, % of GMNN control: 11.9; outcome: inactive

Which result is listed for NF1 (neurofibromin 1) #5?
G2 robust z-score: -0.484; G2 cells, % of GMNN control: -0.435; outcome: inactive

With NF1 (neurofibromin 1) #6, what does the deposit list?
G2 robust z-score: 0.789; G2 cells, % of GMNN control: 8.52; outcome: inactive

Active calls, of those listed so far:
AKAP8 (A-kinase anchoring protein 8) #1 → G2 robust z-score: 5.26; G2 cells, % of GMNN control: 40; outcome: active

More results follow:
What did the screen give for KLC3 (kinesin light chain 3) #1?
G2 robust z-score: 0.72; G2 cells, % of GMNN control: 8.03; outcome: inactive

What did the screen give for KLC3 (kinesin light chain 3) #2?
G2 robust z-score: -1.03; G2 cells, % of GMNN control: -4.28; outcome: inactive

For KLC3 (kinesin light chain 3) #3, what was measured?
G2 robust z-score: 1.99; G2 cells, % of GMNN control: 17; outcome: inactive

Which result is listed for IARS2P1 (IARS2 pseudogene 1) #1?
G2 robust z-score: -0.412; G2 cells, % of GMNN control: 0.0694; outcome: inactive

For IARS2P1 (IARS2 pseudogene 1) #2, how do the results read?
G2 robust z-score: -0.194; G2 cells, % of GMNN control: 1.6; outcome: inactive

With IARS2P1 (IARS2 pseudogene 1) #3, what was measured?
G2 robust z-score: -0.189; G2 cells, % of GMNN control: 1.64; outcome: inactive

For CHP1 (calcineurin like EF-hand protein 1) #1, how do the results read?
G2 robust z-score: -0.201; G2 cells, % of GMNN control: 1.55; outcome: inactive

For CHP1 (calcineurin like EF-hand protein 1) #2, what does the deposit list?
G2 robust z-score: -0.344; G2 cells, % of GMNN control: 0.55; outcome: inactive

For CHP1 (calcineurin like EF-hand protein 1) #3, what was measured?
G2 robust z-score: -0.745; G2 cells, % of GMNN control: -2.28; outcome: inactive

What did the screen give for RWDD3 (RWD domain containing 3) #1?
G2 robust z-score: 1.82; G2 cells, % of GMNN control: 15.7; outcome: inactive

For RWDD3 (RWD domain containing 3) #2, how do the results read?
G2 robust z-score: -0.703; G2 cells, % of GMNN control: -1.98; outcome: inactive

What did the screen give for RWDD3 (RWD domain containing 3) #3?
G2 robust z-score: 0.406; G2 cells, % of GMNN control: 5.83; outcome: inactive

What did the screen give for OAZ3 (ornithine decarboxylase antizyme 3) #1?
G2 robust z-score: -1.02; G2 cells, % of GMNN control: -4.23; outcome: inactive

For OAZ3 (ornithine decarboxylase antizyme 3) #2, what was measured?
G2 robust z-score: 0.29; G2 cells, % of GMNN control: 5.01; outcome: inactive

How did the screen score OAZ3 (ornithine decarboxylase antizyme 3) #3?
G2 robust z-score: -0.415; G2 cells, % of GMNN control: 0.0498; outcome: inactive

For DUSP13B (dual specificity phosphatase 13B) #1, how do the results read?
G2 robust z-score: -0.959; G2 cells, % of GMNN control: -3.78; outcome: inactive

Which result is listed for DUSP13B (dual specificity phosphatase 13B) #2?
G2 robust z-score: -0.84; G2 cells, % of GMNN control: -2.94; outcome: inactive

For DUSP13B (dual specificity phosphatase 13B) #3, what does the deposit list?
G2 robust z-score: 0.488; G2 cells, % of GMNN control: 6.4; outcome: inactive
